No constants are given. Whether binding was seen depends on the method and setting. Sequences can lack the tags named with a protein.
Biological target: T1, EcSxyHIS (histidine-tagged E. coli Sxy) (E. coli) (UniProt P75869)
T1 sequence: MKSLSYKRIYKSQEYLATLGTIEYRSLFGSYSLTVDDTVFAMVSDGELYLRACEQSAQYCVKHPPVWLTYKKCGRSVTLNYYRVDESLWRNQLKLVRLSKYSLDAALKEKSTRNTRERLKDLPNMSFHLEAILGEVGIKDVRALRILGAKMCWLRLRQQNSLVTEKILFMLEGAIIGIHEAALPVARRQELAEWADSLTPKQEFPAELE
Assay: Ni-NTA co-purification, CRP detected by bandshift

By UniProt entry, the sequences of proteins in these tests, tags left out.
UniProt P0ACJ8: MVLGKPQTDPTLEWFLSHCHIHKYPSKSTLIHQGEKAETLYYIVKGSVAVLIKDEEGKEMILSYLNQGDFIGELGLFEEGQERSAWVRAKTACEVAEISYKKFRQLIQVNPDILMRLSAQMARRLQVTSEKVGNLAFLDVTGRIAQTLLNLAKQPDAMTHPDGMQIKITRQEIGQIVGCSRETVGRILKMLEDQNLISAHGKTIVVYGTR

- binding: no binding
Substance: native CRP (cAMP receptor protein) of E. coli (from UniProt P0ACJ8 1-210)

— article doi:10.1101/284836
